According to PubChem BioAssay AID1671190 (National Center for Advancing Translational Sciences (NCATS), 2021):
Several values for one entry are separate records, joined by “and”; a condition that tells them apart may be missing. Identical values can stand only once. About 6,100 (1.1%) of roughly 580,000 compounds were called active. The inconclusive results got no clear call from the source; some entries with a clear call stand among them for comparison. Calls come from the whole dose curve; as a rule, active = well fitted inhibition curve with a large enough effect; inconclusive = small, poorly fitted or top-dose-only effect, or another doubt; inactive = no such curve, though single readings can be large or run the other way. Potencies of inconclusive entries are doubtful fits and often do not repeat.

Chains of the proteins cited; added tags and fusions are not shown.
UniProt P18054, whole entry, looked up: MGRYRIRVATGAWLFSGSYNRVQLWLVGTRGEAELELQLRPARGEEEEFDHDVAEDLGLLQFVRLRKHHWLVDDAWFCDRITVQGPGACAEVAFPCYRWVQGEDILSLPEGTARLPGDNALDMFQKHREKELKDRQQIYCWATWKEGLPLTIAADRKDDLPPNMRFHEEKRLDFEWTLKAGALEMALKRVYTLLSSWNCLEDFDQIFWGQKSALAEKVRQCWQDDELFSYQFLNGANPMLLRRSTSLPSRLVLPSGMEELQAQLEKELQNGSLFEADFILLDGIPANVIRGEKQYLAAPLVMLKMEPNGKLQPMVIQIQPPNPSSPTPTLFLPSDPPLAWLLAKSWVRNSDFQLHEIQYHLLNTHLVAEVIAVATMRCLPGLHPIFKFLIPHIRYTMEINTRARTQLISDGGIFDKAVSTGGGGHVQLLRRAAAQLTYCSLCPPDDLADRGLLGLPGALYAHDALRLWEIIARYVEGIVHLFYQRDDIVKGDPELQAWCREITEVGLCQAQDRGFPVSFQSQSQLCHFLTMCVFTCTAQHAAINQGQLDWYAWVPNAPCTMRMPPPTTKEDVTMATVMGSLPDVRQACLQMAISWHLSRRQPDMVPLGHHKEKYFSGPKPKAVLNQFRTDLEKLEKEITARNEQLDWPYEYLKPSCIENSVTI

Target: Polyunsaturated fatty acid lipoxygenase ALOX12 (Homo sapiens) (UniProt P18054)
Test: Primary qHTS assay for inhibitors of human arachidonate 12S-lipoxygenase (ALOX12): Round 2
Details: purified 12hLO, xylenol orange hydroperoxide absorbance; activity change, negative = inhibition: at 108 µM (top of the series)
In short: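 Purified human 12hLO at 150 nM in 25 mM Hepes, 0.01% Triton X-100, pH 7.0, preincubated 15 min at room temperature with compound. Reaction started with 40 uM arachidonic acid, 30 min at room temperature. Hydroperoxide measured by Fe-xylenol orange, 573/405 nm absorbance ratio.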
% is set by controls: 0 for no effect and ±100 for the full control effect; potency is the fitted concentration of half-maximal effect.

| Structure (SMILES) | activity change, negative = inhibition | Potency |
| --- | --- | --- |
| CCCn1ncc(C(=O)N[C@H]2COC[C@H]2Cc2cc(C)no2)c1C | inactive: 8.33% |  |
| CC(C)C(=O)Nc1nnc(CCN(CCc2nnc(NC(=O)C(C)C)s2)[N+](=O)[O-])s1 |  | inconclusive: 5.62 µM [inhibitor, partial curve, poor fit] |
| CCCCCn1c(=O)c(C(=O)Nc2ncccc2C)c(O)c2ccccc21 |  | inconclusive: 50.1 µM [inhibitor, partial curve, poor fit] |
| CC(C)CNC(=O)/C=C/c1ccc(C(C)C)cc1 |  | inconclusive: 79.4 µM [inhibitor, partial curve, poor fit] |
| O=C(O)COc1ccccc1/C=C1\C(=O)NC(=O)N(CCC2=CCCCC2)C1=O |  | inconclusive: 39.8 µM [inhibitor, partial curve, poor fit] |
| O=[N+]([O-])c1ccc(CNCCc2ccccc2)cc1 |  | inconclusive: 0.794 µM [inhibitor, full curve, poor fit] |
| CN(C)c1ccc(C(=O)NC[C@H]2C[C@@H]3CCN2C[C@@H]3CN2CCN(c3ccccn3)CC2)cc1 | inactive: 11.9% |  |
| N#Cc1cnn2c(C(F)F)cc(-c3ccc(F)cc3)nc12 | inactive: 21.1% |  |
| COC(=O)C(O)(c1ccc(NC(=O)c2cccs2)cc1)C(F)(F)F (stereo not given) |  | inconclusive: 141 µM [inhibitor, partial curve, poor fit] |
| c1nc(N2C[C@@H](c3ccc4c(c3)OCO4)[C@@H]3[C@H]2C2CCN3CC2)c2[nH]cnc2n1 | inactive: 45.5% |  |
| COC(=O)C1=C(c2ccc(S(C)(=O)=O)cc2)C[C@@H]2CC[C@H]1N2C(=O)N1CCCC1 |  | inconclusive: 141 µM [inhibitor, partial curve, poor fit] |
| COc1ccccc1CN1CCNCC1 |  | inconclusive: 6.31 µM [inhibitor, partial curve, poor fit] |
| Cc1cc(OC(C)C(=O)NCC(O)c2ccccc2)c2c3c(c(=O)oc2c1)CCCC3 (stereo not given) | inactive: 0% |  |
| COc1ccc(CC(=O)N2CCC3(CC2)c2nccn2-c2ccccc2CN3C)cc1 | inactive: 15.6% |  |
| Clc1ccc(CCNCc2ccncc2)c(Cl)c1 |  | inconclusive: 0.398 µM [inhibitor, full curve, poor fit] |
| Cc1ccccc1N1C(=O)CC(=O)N(c2ccccc2C)C1=O | inactive: -18.2% |  |
| CC[C@H]1CN2CC[C@H]1C[C@@H]2CNC(=O)Nc1cccc(SC)c1 | inactive: 19.2% [at 176 µM] |  |
| CC1CCC(N2CCN(C(=O)COc3ccccc3)CC2)CC1 (stereo not given) |  | inconclusive: 0.398 µM [inhibitor, full curve] |
| CN1CCc2nc3ccc(F)cc3c(C(N)=O)c2C1 |  | inconclusive: 44.7 µM [inhibitor, partial curve, poor fit] |
| Cc1ccc(S(=O)(=O)NC[C@H]2C[C@@H]3CCN2C[C@@H]3CN2CCCCC2)cc1 |  | inconclusive: 28.2 µM [inhibitor, full curve] |
| c1cncc(CN2CCOC[C@H]3CCNC[C@H]32)c1 | inactive: 25.5% |  |
| FC(F)(F)c1ccccc1CN1CCN(Cc2ccccc2)CC1 |  | inconclusive: 0.631 µM [inhibitor, full curve, poor fit] |

| Structure (SMILES) | activity change, negative = inhibition | Potency |
| --- | --- | --- |
| Oc1ccc(/C=N/NP(=S)(c2ccccc2)c2ccccc2)c(O)c1O |  | inconclusive: 35.5 µM [inhibitor, partial curve] |
| COc1cc(NC(=O)OC[C@H]2C[C@@H]3CCN2C[C@@H]3c2cc(-c3ccc(N(C)C)cc3)nc(C)n2)cc(OC)c1 |  | active: 44.7 µM |
| COC[C@H]1C[C@@H](NC2CCN(C)CC2)[C@H](O)[C@@H]1O |  | inconclusive: 50.1 µM [inhibitor, partial curve] |
| COc1ccc(OC)c(-n2c(O)c(C=Nc3c(C)n(C)n(-c4ccccc4)c3=O)c(=O)[nH]c2=S)c1 |  | inconclusive: 28.2 µM [inhibitor, single point] |
| CCc1cccc(NC(=O)CN2C(=O)CN=C(c3ccccc3F)c3cc(Cl)ccc32)c1 |  | inconclusive: 56.2 µM [inhibitor, partial curve, poor fit] |
| COC(=O)C1=C(c2ccc(F)cc2OCc2ccccc2)C[C@@H]2CC[C@H]1N2C(=O)NCc1cccc(OC)c1 | inactive: -0.31% |  |
| Cc1cnc(-n2c(=S)[nH]c3ccccc3c2=O)s1 |  | inconclusive: 25.1 µM [inhibitor, single point] |
| C#C[C@H]1CN2CC[C@H]1C[C@@H]2CNC(=O)c1ccc2ccccc2c1 | inactive: 5.77% [at 176 µM] |  |
| Cc1cccc(N/N=C/c2c(O)[nH]c(=S)[nH]c2=O)c1 |  | inconclusive: 11.2 µM [inhibitor, full curve, poor fit] |
| O=C(c1cn(CCCCn2cc(C(=O)C(F)(F)F)c3ccccc32)c2ccccc12)C(F)(F)F | inactive: -16.3% |  |
| CCCCNC(=O)c1c(N)n(CCCOC)c2nc3ccccc3nc12 |  | inconclusive: 44.7 µM [inhibitor, partial curve, poor fit] |
| Cc1cc(N2CCNC[C@H]2C)ccc1N1CC[C@H](O)C1 |  | inconclusive: 50.1 µM [inhibitor, partial curve, poor fit] |
| Cc1ccccc1-n1c(C)cc(/C=C2/C(=O)NC(=O)N(Cc3ccco3)C2=O)c1C |  | inconclusive: 44.7 µM [inhibitor, partial curve, poor fit] |
| CC(C)NC1CNC1 | inactive: 43% [at 365 µM] |  |
| CCCCOP(=O)(O)OCCCC |  | inconclusive: 112 µM [inhibitor, partial curve, poor fit] |
| CC(C)[C@@]1(NC(=O)[C@@H]2C[C@@H]3c4cccc5[nH]cc(c45)C[C@H]3N(C)C2)O[C@@]2(O)[C@@H]3CCCN3C(=O)[C@H](Cc3ccccc3)N2C1=O |  | inconclusive: 10 µM [inhibitor, full curve, poor fit] and inconclusive: 50.1 µM [inhibitor, partial curve, poor fit] |
| O=C1CN=C(c2cccc(Br)c2)c2cc(Br)ccc2N1 |  | inconclusive: 50.1 µM [inhibitor, partial curve, poor fit] |
| CCCCCCn1c(=O)c(C(=O)Nc2c(C)n(C)n(-c3ccccc3)c2=O)c(O)c2ccccc21 | inactive: 8.4% |  |
| c1ccc(C(OCCN2CCNCC2)c2ccccc2)cc1 |  | inconclusive: 2.82 µM [inhibitor, full curve] |
| O=C(c1sc2cc(F)ccc2c1Cl)N1CCC2(CC1)OCCO2 | inactive: 7.07% |  |
| CC(C)CCNC(=O)c1c(N)n(CC2CCCO2)c2nc3ccccc3nc12 (stereo not given) |  | inconclusive: 89.1 µM [inhibitor, partial curve, poor fit] |
| C/C(=N\N1CCCCCC1)c1c(O)n(-c2ccccc2C)c(=O)[nH]c1=O |  | inconclusive: 126 µM [inhibitor, single point] |

| Structure (SMILES) | activity change, negative = inhibition | Potency |
| --- | --- | --- |
| CC(C)N1CC2CCC(C1)N2Cc1ccc(-c2cncnc2)cc1 | inactive: 3.49% [at 176 µM] |  |
| CN(CCc1ccccn1)C[C@H]1CN2CC[C@H]1C[C@@H]2CNS(=O)(=O)c1ccccc1 | inactive: 5.35% [at 176 µM] |  |
| C[C@H]1CN([C@@H](C)CO)C(=O)CCCn2nncc2CO[C@H]1CN(C)C(=O)Oc1ccccc1 |  | inconclusive: 28.2 µM [inhibitor, single point] |
| CNC(=O)NC(=O)C(C)Cl (stereo not given) |  | inconclusive: 50.1 µM [inhibitor, partial curve, poor fit] |
| Cc1cc(C)cc(N2C(=O)NC(=O)/C(=C\c3cccn3-c3ccc(Cl)cc3)C2=O)c1 | inactive: 297% |  |
| COCC1CN(C(C)=O)CC12CCNCC2 (stereo not given) |  | inconclusive: 5.01 µM [inhibitor, partial curve, poor fit] |
| COc1ccc(CNCCc2ccc(Cl)cc2)cc1 |  | inconclusive: 50.1 µM [inhibitor, full curve, poor fit] |
| Cc1ccc(N=Nc2c(O)[nH]c(=O)[nH]c2=O)c([N+](=O)[O-])c1 |  | inconclusive: 20 µM [inhibitor, partial curve] |
| CCCCOC(=O)c1ccccc1C(=O)OCc1ccccc1 |  | inconclusive: 16.5 µM [inhibitor, partial curve] |
| Nc1c(C(=O)NCCCc2ccccc2)c2nc3ccccc3nc2n1Cc1cccs1 |  | inconclusive: 79.4 µM [inhibitor, partial curve, poor fit] |
| CC[C@H]1CN2CC[C@H]1C[C@@H]2CNC(=S)Nc1ccc(C)cc1Br | inactive: -9.95% [at 176 µM] |  |
| O=c1[nH]c2ccccc2n1C1CCN(C(c2ccccc2)c2nnnn2-c2ccc3c(c2)OCCO3)CC1 (stereo not given) | inactive: -25.2% |  |
| COc1cc(C)c(-c2nc(CN3C[C@@H]4C[C@@H](C3)c3cccc(=O)n3C4)c(C)o2)cc1C |  | inconclusive: 100 µM [inhibitor, single point] |
| C[C@]12CC[C@H]3[C@@H](CCC4=CC(=O)CC[C@@]43C)[C@H]1CC[C@H]2OC(=O)CCC1CCCC1 |  | inconclusive: 12.2 µM [inhibitor, single point] |
| O=c1c2ccccc2[nH]c(=S)n1-c1ccc(Br)cc1 | inactive: 0.315% |  |
| NCC(O)c1cc(O)c(O)cc1F (stereo not given) |  | inconclusive: 31.6 µM [inhibitor, partial curve, poor fit] |
| C=CCn1c(O)c(C(C)=NCc2ccc3c(c2)OCO3)c(=O)[nH]c1=O |  | inconclusive: 126 µM [inhibitor, single point] |
| O=C(Nc1cccc(F)c1)N1CCC2(CC1)CCN(C(=O)Oc1ccccc1)CC2 | inactive: -3.73% [at 57.4 µM] |  |
| Cc1cccc(-c2ncc(CN3CCC4(CCCNC4)C3)cn2)c1 (stereo not given) |  | inconclusive: 10 µM [inhibitor, full curve, poor fit] |
| CC(C)N1C(=O)CC2(CC[N+](C)(CCOC(=O)C(O)(c3ccccc3)c3ccccc3)CC2)C1=O (stereo not given) |  | active: 35.5 µM |
| O=c1[nH]c(=S)n(CCC2=CCCCC2)c(O)c1/C=N/N1CCOCC1 |  | inconclusive: 35.5 µM [inhibitor, partial curve, poor fit] |
